Patent US8524688B2, “Use of sulfated glycosaminoglycans for establishing effective labor in women” (Dilafor AB, priority 2002, dated 2013)
Some entries share one result that the patent states for a list of compounds. At least one compound was matched to its structure with a doubt left.

Test system: cervical fibroblasts
Assay: Effect on Ca2+ levels in cervical fibroblasts (Fluo-4 fluorescence)
Type: cell-based, human
Details: cultures from patients directly after partus; HS6 100 μg, PDGF 10 ng/ml
Experimental: Fibroblast cultures were established from non-pregnant, and term pregnant patients and from women delivered vaginally (after partus patients). The cells were cultured in monolayer cultures with minimum essential medium with 10% donor calf serum. For experiments these cells were plated on cover glasses with at semi-confluence and loaded with Fluo-4 in phosphate buffered saline containing 10 mM HEPES for 30 min. Initially phosphate buffered saline containing 10 mM HEPES (HEPES-buffer) was pumped into the observation chamber for 30 s, then KCl in the same buffer was pumped for 60 s followed by HEPES-buffer for 30 s. Then 10 ng of PDGF/ml in HEPES-buffer was added. The fluorescence was monitored continuously for 3 min. In other experiments PDGF was replaced with 100 μg of HS6. […] This effect is postulated to be of importance at partus for final preparation of cervix for delivery.

Row | Molecule | Transient increase of fluorescence (intracellular Ca2+)
1 | [Cl-].[K+] [KCl] | 4-8 fold
2 | PDGF | 4-8 fold
